The text below walks through data of PMC7819943, “Rice protein-binding microarrays: a tool to detect cis-acting elements near promoter regions in rice”.

The list shows a part of the results.

The assay addresses T1, OsSMF1 (Oryza sativa, UniProt Q6ZLB0 1-436).
T1 sequence: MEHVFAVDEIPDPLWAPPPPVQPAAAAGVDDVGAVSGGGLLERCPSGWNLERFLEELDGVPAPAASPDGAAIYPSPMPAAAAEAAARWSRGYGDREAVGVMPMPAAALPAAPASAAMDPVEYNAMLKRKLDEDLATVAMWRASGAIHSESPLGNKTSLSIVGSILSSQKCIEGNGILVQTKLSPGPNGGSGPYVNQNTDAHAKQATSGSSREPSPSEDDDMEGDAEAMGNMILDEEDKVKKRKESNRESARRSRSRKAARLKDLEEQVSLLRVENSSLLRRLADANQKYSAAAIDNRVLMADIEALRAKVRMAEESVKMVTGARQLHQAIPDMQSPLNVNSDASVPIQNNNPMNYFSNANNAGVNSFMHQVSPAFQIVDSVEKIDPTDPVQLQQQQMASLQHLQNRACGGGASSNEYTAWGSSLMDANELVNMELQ
As to the kind of experiment: protein-binding microarray (RPBM); PBS, 2% BSA, 51.3 ng/ul salmon testes DNA, 50 uM zinc acetate, 200 nM TF, 25 C, 1 h; high values mean tight binding. The settings on record: protein: recombinant; tags: N-terminal polyhistidine and DsRed monomer fusion (pET32a); chain copies: 2; label: CyDye5-dUTP incorporated in the synthesized complementary strand; 3' TTTTT single-stranded linker to array surface; dsDNA, one strand shown. The method, boiled down:
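Transcription factors were made in E. coli BL21-CodonPlus as N-terminal fusions to a polyhistidine tag and DsRed, then purified on Ni–NTA. After primer extension with Cy5-dUTP and blocking with 2% BSA, a custom Agilent array was exposed for 1 h at 25 °C to 200 nM protein in PBS, 2% BSA, salmon testes DNA and 50 µM zinc acetate. Washed arrays were scanned on an Axon 4000B, and the binding signal is per-feature fluorescence intensity in arbitrary units.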
For the sequence “CTGAAAGACGTAATGTGTGTATAACAGGTGGCACCATATACGGAGTCACCTAGTGCAG”, the binding signal was 3350 fluorescence intensity (a.u.).

Regarding “AAAATATATTACTACCTCCGTTTCATATTATAAGACTTTCCGGAGTCACCTAGTGCAG”, the binding signal is 65400 fluorescence intensity (a.u.).

In the case of “ATGGAATGGCGAGTATTTATCCTCAATCCCAGAGATGGCACGGAGTCACCTAGTGCAG”, the binding signal was 38400 fluorescence intensity (a.u.).

Consider “TGCCACGCACGATGACAGTGACATCTTGCTAACATCCTCCCGGAGTCACCTAGTGCAG”, for which the binding signal was 4640 fluorescence intensity (a.u.).

With “TCTAATGCCTCGTTGCTGCCACGTTGAACAAAGACCAGGTCGGAGTCACCTAGTGCAG”, the binding signal is 6510 fluorescence intensity (a.u.).

Take “CCTTTCAGAATCCTACGTGGTGCTGATGTGGCATGCCACACGGAGTCACCTAGTGCAG”: the binding signal is 36400 fluorescence intensity (a.u.).

Regarding “CATCACCTGCACCCACCACATCACCTCATTGCGAGCCAGCCGGAGTCACCTAGTGCAG”, the binding signal was 3410 fluorescence intensity (a.u.).

As to “AATTTACAGTTTTACACGTTTAGAGTTTACTGTAACGTGCCGGAGTCACCTAGTGCAG”, the binding signal is 3250 fluorescence intensity (a.u.).

In the case of “GCCGGCGACGGAGGCATCCACCACGTTGGTGTTTGTTCAGCGGAGTCACCTAGTGCAG”, the binding signal is 4940 fluorescence intensity (a.u.).

As for “TAAGTTGGATTGAATTGGCTTGTCTACACGTGTCCTTTCCCGGAGTCACCTAGTGCAG”, the binding signal is 7940 fluorescence intensity (a.u.).

“CTGCCATGTCAGGAAGAGCTCGAGGCCCCAAGCCGCCAAGCGGAGTCACCTAGTGCAG”: the binding signal is 21000 fluorescence intensity (a.u.).

As to “TTGATGTGCCACGTAAACGCCACATCAGCTAAACCCAGGCCGGAGTCACCTAGTGCAG”, the binding signal is 31400 fluorescence intensity (a.u.).

In the case of “TCCCTTCTCATTATGAATTTGTCTTGAGACCATGGGCAAGCGGAGTCACCTAGTGCAG”, the binding signal was 8360 fluorescence intensity (a.u.).

In the case of “GGTCGAGGTCGGGGCGGCCGCTGCCGCTGCCGCGGTCGCACGGAGTCACCTAGTGCAG”, the binding signal was 32300 fluorescence intensity (a.u.).

On to “TTTGACATAGATGTGTTCCTCTAATGACATAGATGTGTTCCGGAGTCACCTAGTGCAG”, for which the binding signal was 3230 fluorescence intensity (a.u.).

For “TTTGTCTATCCTGCCGGCTTTTGGCCTCTGCACGGCGCGCCGGAGTCACCTAGTGCAG”, the binding signal was 6700 fluorescence intensity (a.u.).

Consider “CGCGATTCGCGAGTCATCATCCACGCGTCGTCGTCGTACTCGGAGTCACCTAGTGCAG”, for which the binding signal was 4740 fluorescence intensity (a.u.).

With “AGGCTACCCCACATATTATACTGGTGTGATTATGGTGAATCGGAGTCACCTAGTGCAG”, the binding signal was 3540 fluorescence intensity (a.u.).

With “AACGGCCCCGCATTCCTTGCCGTGACGTGACATGGCCACGCGGAGTCACCTAGTGCAG”, the binding signal was 11100 fluorescence intensity (a.u.).

Consider “TGGTGTCGCCGACTCTCTTCCTCCCGGTCCACTGGTGCCGCGGAGTCACCTAGTGCAG”, for which the binding signal is 13700 fluorescence intensity (a.u.).

Regarding “CCAAACTAAGAGTGTTCAAGGGGAGGGGAAAAGAGAAGATCGGAGTCACCTAGTGCAG”, the binding signal is 3660 fluorescence intensity (a.u.).

For the sequence “TCCGTGGATGGTGGGAGACGGAGCGGCGTCATCGGTGGCCCGGAGTCACCTAGTGCAG”, the binding signal is 4120 fluorescence intensity (a.u.).

“CGCCATGGACTGTCTCCATCCAAACCTACGTGTATCTTCACGGAGTCACCTAGTGCAG”: the binding signal was 3260 fluorescence intensity (a.u.).

As for “GCTTGTGCCGCCGCCGCCACGTGCCGGTAGGGCTCCCCGCCGGAGTCACCTAGTGCAG”, the binding signal is 8360 fluorescence intensity (a.u.).

With “TTGGGTGGTCCCAAAATCATGGCAACTAATGGTGTTGTCCCGGAGTCACCTAGTGCAG”, the binding signal is 3900 fluorescence intensity (a.u.).

For “AAAGAACGCAGCCTTAGAAGGAGACAGCTCATGGAGCAAGCGGAGTCACCTAGTGCAG”, the binding signal is 5000 fluorescence intensity (a.u.).

As to “AGAAGGGAAGGGGAGGGGAGGGCGGGACGCCGGCCGGAGCCGGAGTCACCTAGTGCAG”, the binding signal was 5470 fluorescence intensity (a.u.).

With “GCCATCGCTGACGCCGCCGACGCCGCCTCCAAATCCCGCCCGGAGTCACCTAGTGCAG”, the binding signal is 4700 fluorescence intensity (a.u.).

Consider “GTGCCTTGTTAAGTCGTTCGTGGTAGAATGCGTTGGCAGTCGGAGTCACCTAGTGCAG”, for which the binding signal was 6840 fluorescence intensity (a.u.).

As to “TGCATGATATACAAATGTATAGCAAGCAGCACACATTACACGGAGTCACCTAGTGCAG”, the binding signal was 32000 fluorescence intensity (a.u.).

Take “GGCGAGTCCACCGCGACGACACACACGTACTGATACCAATCGGAGTCACCTAGTGCAG”: the binding signal is 4930 fluorescence intensity (a.u.).

As for “ATAAATTACCTTTAAATTTGCATGTGTTAAGCGATCATATCGGAGTCACCTAGTGCAG”, the binding signal is 3820 fluorescence intensity (a.u.).

On to “ATAGATACTCCCTTCTACATCCCATCATAGTATGTGTCACCGGAGTCACCTAGTGCAG”, for which the binding signal was 4490 fluorescence intensity (a.u.).

For “CGTCGCCGTCGCCTCGCCTCGTCACGGCCGCCTCCGCCATCGGAGTCACCTAGTGCAG”, the binding signal is 7920 fluorescence intensity (a.u.).

“CCGCCGCCGACGCGTTCCCGGCCGGCGGCGCCTACGTCGTCGGAGTCACCTAGTGCAG”: the binding signal is 3350 fluorescence intensity (a.u.).

Regarding “GTGTGTGAGGTGGGGAATTGGGAGCAGTTGATCACCGGGGCGGAGTCACCTAGTGCAG”, the binding signal is 3380 fluorescence intensity (a.u.).

Consider “TCGTGATCGGAAGGCGGAATGGTTGGGGCTACGTGTTTGTCGGAGTCACCTAGTGCAG”, for which the binding signal is 5050 fluorescence intensity (a.u.).

“GGAGCACATAACATGCACGTCGGCCTCTGCCGCGTACGTACGGAGTCACCTAGTGCAG”: the binding signal was 3350 fluorescence intensity (a.u.).

With “TTGAAACTCAACGATACATCACTAGCTACCATTACGTATACGGAGTCACCTAGTGCAG”, the binding signal is 3140 fluorescence intensity (a.u.).

For “GAAGTAGTATCATGTTTACTCGTCCAACGTGTCTACCATCCGGAGTCACCTAGTGCAG”, the binding signal was 7280 fluorescence intensity (a.u.).

On to “GACACGCCCGCCATGTCAGCCAAACACTGCTCTGGGATCTCGGAGTCACCTAGTGCAG”, for which the binding signal is 6850 fluorescence intensity (a.u.).

On to “CAATTATCATTTATTTTGTTGTGAGTTGTTTTATCACTAACGGAGTCACCTAGTGCAG”, for which the binding signal was 3410 fluorescence intensity (a.u.).
